{"source": "PubChem BioAssay AID652243 – Drosophila RNAi Screening Center – 2013", "aim": "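Knock-downs that decrease or increase androgen receptor reporter signal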 (primary screen)", "system": "Drosophila S2R+ cells", "reagents": "long dsRNA against Drosophila genes", "time to read-out": "72 h (48 h, then 24 h hormone)", "treatment": "synthetic androgen R1881 at 10 nM for 24 h", "measurement": "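Firefly light from an androgen-responsive reporter and Renilla control light per well, raw and unnormalised, for each of two replicates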", "scale": "firefly reporter light: higher = more light from androgen-responsive reporter; Renilla control light: higher = more constitutive control signal (cell number, transfection)", "active means": "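Hit when the log firefly-to-Renilla ratio dropped or increased by a fixed fold versus the mean of GFP or LacZ controls across duplicate plates; lowering cut given as 1.5 and as 3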", "calls": "active = hit: reporter lowered or raised; inactive = no hit", "note": "In all, the deposit lists about 24,000 reagents; this is an unselected part of those that have a named target and a result. In the full data, 246 (1%) were called active. 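Plates not normalised; calls are printed but the firefly/Renilla ratio behind them is not deposited; fold cut for lowering reported inconsistently.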 Raw values vary from plate to plate and are shown uncorrected. The record does not give: the amount of reagent."}
{"gene knocked down":"Ctr1C (Copper transporter 1C)","amplicon":"DRSC15089","firefly reporter light, replicate 1":2.50e5,"firefly reporter light, replicate 2":2.37e5,"Renilla control light, replicate 1":2.38e6,"Renilla control light, replicate 2":2.43e6,"Outcome":"inactive"}
{"gene knocked down":"mod(mdg4) (modifier of mdg4)","amplicon":"DRSC13474","Outcome":"inactive"}
{"gene knocked down":"mod(mdg4) (modifier of mdg4)","amplicon":"DRSC13475","Outcome":"inactive"}
{"gene knocked down":"mod(mdg4) (modifier of mdg4)","amplicon":"DRSC13478","firefly reporter light, replicate 1":80337,"firefly reporter light, replicate 2":1.18e5,"Renilla control light, replicate 1":1.72e5,"Renilla control light, replicate 2":1.55e5,"Outcome":"inactive"}
{"gene knocked down":"mod(mdg4) (modifier of mdg4)","amplicon":"DRSC15042","firefly reporter light, replicate 1":2.72e5,"firefly reporter light, replicate 2":3.03e5,"Renilla control light, replicate 1":2.89e6,"Renilla control light, replicate 2":3.11e6,"Outcome":"inactive"}
{"gene knocked down":"mod(mdg4) (modifier of mdg4)","amplicon":"DRSC17000","firefly reporter light, replicate 1":69352,"firefly reporter light, replicate 2":94193,"Renilla control light, replicate 1":7.85e5,"Renilla control light, replicate 2":8.70e5,"Outcome":"inactive"}
{"gene knocked down":"Ect3 (Ectoderm-expressed 3)","amplicon":"DRSC15462","firefly reporter light, replicate 1":1.23e5,"firefly reporter light, replicate 2":2.21e5,"Renilla control light, replicate 1":1.94e6,"Renilla control light, replicate 2":2.30e6,"Outcome":"inactive"}
{"gene knocked down":"Ect3 (Ectoderm-expressed 3)","amplicon":"DRSC25392","firefly reporter light, replicate 1":5.23e5,"firefly reporter light, replicate 2":5.01e5,"Renilla control light, replicate 1":5.12e5,"Renilla control light, replicate 2":6.13e5,"Outcome":"inactive"}
{"gene knocked down":"CG12923","amplicon":"DRSC06237","firefly reporter light, replicate 1":2.71e5,"firefly reporter light, replicate 2":2.25e5,"Renilla control light, replicate 1":1.49e6,"Renilla control light, replicate 2":1.20e6,"Outcome":"inactive"}
{"gene knocked down":"PAPLA1 (Phosphatidic Acid Phospholipase A1)","amplicon":"DRSC03095","firefly reporter light, replicate 1":3.77e5,"firefly reporter light, replicate 2":5.74e5,"Renilla control light, replicate 1":1.39e6,"Renilla control light, replicate 2":1.91e6,"Outcome":"inactive"}
{"gene knocked down":"PAPLA1 (Phosphatidic Acid Phospholipase A1)","amplicon":"DRSC03096","firefly reporter light, replicate 1":1.79e5,"firefly reporter light, replicate 2":2.28e5,"Renilla control light, replicate 1":1.54e6,"Renilla control light, replicate 2":1.50e6,"Outcome":"inactive"}
{"gene knocked down":"CG15034","amplicon":"DRSC17966","firefly reporter light, replicate 1":3.39e5,"firefly reporter light, replicate 2":4.40e5,"Renilla control light, replicate 1":2.25e6,"Renilla control light, replicate 2":3.03e6,"Outcome":"inactive"}
{"gene knocked down":"CG6726","amplicon":"DRSC16101","firefly reporter light, replicate 1":1.92e5,"firefly reporter light, replicate 2":1.92e5,"Renilla control light, replicate 1":2.59e6,"Renilla control light, replicate 2":2.28e6,"Outcome":"inactive"}
{"gene knocked down":"CG6726","amplicon":"DRSC28130","firefly reporter light, replicate 1":4.02e5,"firefly reporter light, replicate 2":4.39e5,"Renilla control light, replicate 1":1.58e6,"Renilla control light, replicate 2":1.51e6,"Outcome":"inactive"}

Reprinted from above for reference:
{"gene knocked down":"CG6726","amplicon":"DRSC16101","firefly reporter light, replicate 1":1.92e5,"firefly reporter light, replicate 2":1.92e5,"Renilla control light, replicate 1":2.59e6,"Renilla control light, replicate 2":2.28e6,"Outcome":"inactive"}
{"gene knocked down":"CG6726","amplicon":"DRSC28130","firefly reporter light, replicate 1":4.02e5,"firefly reporter light, replicate 2":4.39e5,"Renilla control light, replicate 1":1.58e6,"Renilla control light, replicate 2":1.51e6,"Outcome":"inactive"}

The results go on:
{"gene knocked down":"tmod (tropomodulin)","amplicon":"DRSC14314","firefly reporter light, replicate 1":1.24e5,"firefly reporter light, replicate 2":1.00e5,"Renilla control light, replicate 1":1.82e6,"Renilla control light, replicate 2":2.49e6,"Outcome":"inactive"}
{"gene knocked down":"tmod (tropomodulin)","amplicon":"DRSC15076","firefly reporter light, replicate 1":1.37e5,"firefly reporter light, replicate 2":90737,"Renilla control light, replicate 1":1.88e6,"Renilla control light, replicate 2":1.85e6,"Outcome":"inactive"}
{"gene knocked down":"tmod (tropomodulin)","amplicon":"DRSC17062","firefly reporter light, replicate 1":60227,"firefly reporter light, replicate 2":76538,"Renilla control light, replicate 1":6.69e5,"Renilla control light, replicate 2":5.08e5,"Outcome":"inactive"}
{"gene knocked down":"tmod (tropomodulin)","amplicon":"DRSC25448","firefly reporter light, replicate 1":2.52e5,"firefly reporter light, replicate 2":2.64e5,"Renilla control light, replicate 1":6.11e5,"Renilla control light, replicate 2":5.34e5,"Outcome":"inactive"}
{"gene knocked down":"PGRP-SB2 (Peptidoglycan recognition protein SB2)","amplicon":"DRSC11092","firefly reporter light, replicate 1":1.68e5,"firefly reporter light, replicate 2":1.58e5,"Renilla control light, replicate 1":1.47e6,"Renilla control light, replicate 2":1.28e6,"Outcome":"inactive"}
{"gene knocked down":"NetB (Netrin-B)","amplicon":"DRSC20262","firefly reporter light, replicate 1":97905,"firefly reporter light, replicate 2":97543,"Renilla control light, replicate 1":6.46e5,"Renilla control light, replicate 2":6.93e5,"Outcome":"inactive"}
{"gene knocked down":"NetB (Netrin-B)","amplicon":"DRSC26437","firefly reporter light, replicate 1":2.50e5,"firefly reporter light, replicate 2":3.21e5,"Renilla control light, replicate 1":5.05e5,"Renilla control light, replicate 2":3.55e5,"Outcome":"inactive"}
